# Results are given in words; binding and its absence hold for the method and conditions named. In cells and extracts the contact can be indirect. Binding calls can cover weak binding; strength is not graded here. Tags and fused reporters may be left off the sequences shown.
# Chains of the proteins cited; added tags and fusions are not shown. Lines headed by an entry give the natural chain unless they say otherwise; changes in a name come on top.
# UniProt Q9JHJ7: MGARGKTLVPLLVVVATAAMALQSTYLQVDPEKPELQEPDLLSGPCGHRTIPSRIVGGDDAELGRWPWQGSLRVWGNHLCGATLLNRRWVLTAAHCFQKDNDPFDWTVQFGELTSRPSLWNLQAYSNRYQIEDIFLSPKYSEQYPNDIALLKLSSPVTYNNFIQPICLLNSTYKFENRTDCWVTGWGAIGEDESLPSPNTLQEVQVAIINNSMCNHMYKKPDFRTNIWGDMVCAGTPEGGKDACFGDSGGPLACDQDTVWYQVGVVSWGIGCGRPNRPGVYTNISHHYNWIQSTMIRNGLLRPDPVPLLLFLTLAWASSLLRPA
# UniProt Q60718: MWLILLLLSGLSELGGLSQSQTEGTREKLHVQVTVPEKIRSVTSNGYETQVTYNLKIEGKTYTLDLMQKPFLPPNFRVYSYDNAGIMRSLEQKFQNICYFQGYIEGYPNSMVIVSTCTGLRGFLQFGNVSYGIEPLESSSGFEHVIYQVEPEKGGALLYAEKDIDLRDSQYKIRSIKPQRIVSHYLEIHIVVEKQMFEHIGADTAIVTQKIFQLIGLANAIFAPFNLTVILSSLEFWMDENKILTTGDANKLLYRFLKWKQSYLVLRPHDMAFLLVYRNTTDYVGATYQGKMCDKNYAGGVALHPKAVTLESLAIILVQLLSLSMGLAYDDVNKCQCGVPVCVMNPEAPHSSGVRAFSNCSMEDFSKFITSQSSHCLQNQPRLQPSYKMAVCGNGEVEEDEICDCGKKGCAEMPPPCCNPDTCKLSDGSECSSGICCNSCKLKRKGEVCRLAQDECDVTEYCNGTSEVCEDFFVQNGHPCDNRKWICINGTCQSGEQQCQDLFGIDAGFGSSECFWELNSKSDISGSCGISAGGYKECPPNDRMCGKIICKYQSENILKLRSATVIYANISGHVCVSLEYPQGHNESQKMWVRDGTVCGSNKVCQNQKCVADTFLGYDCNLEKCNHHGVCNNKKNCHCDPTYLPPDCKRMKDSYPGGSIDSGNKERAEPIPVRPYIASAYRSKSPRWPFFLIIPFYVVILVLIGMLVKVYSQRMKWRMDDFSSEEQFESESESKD
# Assays:
# [1] = biological target: HA-tagged PRSS21 (PRSS21-HA) (mouse) (UniProt Q9JHJ7); test: co-IP; HEK293T cells co-transfected, harvested 48 h after transfection; NETN lysis buffer (20 mM Tris-HCl pH 7.5, 100 mM NaCl, 6 mM EDTA, 0.5% NP-40); 1 mg protein with 50 ul anti-HA, anti-GFP, anti-FLAG or anti-Myc mAb magnetic beads overnight at 4 C; five washes; western blotting; both directions of precipitation
# [2] = biological target: FLAG-tagged ADAM2 (ADAM2-FLAG) (mouse) (UniProt Q60718); test: as above
binder,measurement,setting,value
"EGFP-tagged SPEM2 (SPEM2-EGFP fusion protein) (protein, UniProt Q8C5U4 1-503) MENQLWQNTLRCCEQYQESPQDAENILFLLLGLIILVNISINVATAMWQGLQNAIDKMIFWMNQKTEVVQVTECPPKEPQPANVQDVHIHCILDPVQVKMAQPTQCSSSSSHYFCKRSNDRRSRRRYGYQQGNLQIHQSSQQQGCLSHQQRLRNRPLSRGYPPFRKQPQGHKMSQMRPMPFFDMEDRDSLPEGHSCPHAKQPRRGWGSLCKPVRLASNVGLWGRQGGILASLPLPSLYLSPELRRLPKRVEAKSELRLQGFGPHYSQSRIWGTVEAEQWASSPPPPRRLLPNPSWVTVGYSSFPSGGHIPYDARDQWRRGTEGCEPPPAFVPRNPREVQGYRDHNSQAHRQNFSSHTHSQPNHSPPQSMGHVGYSSRESHEVRRRAPDWIEVFPSRHPLTTSTSLTALGEASYQRAPPASSGLMIPHSSQRLAEVQISDPTPPPTTFVPLSRNPGGNATYQVYDSLELKRQVQENRGRASSLPPPSTSASRPSLHRSRTGKLN",binding,[1],binds
same,binding,[2],binds

# From PMC10904452
